## Primary screen of a compound library

Measurements from “University of Dundee, Small-Polar-MMV Screening Library” (2021), ChEMBL document CHEMBL3988442.

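Assay of Toxoplasma gondii numbers, read through their beta-galactosidase reporter with a colour substrate. Tested at 10 µM. The record gives no direction; the compounds picked for IC50 retests had high values, so higher reads as fewer parasites. Of about 67,000 compounds tested this way, about 260 (0.38%) reached 50% or more in at least one test.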

Values are the deposited “Percent Effect”, in %.
The record does not define 0% and 100%; most values in the screen are far below 50% and negative numbers occur (in some assays of this library far below -100).
Compounds were drawn at random from those tested, without regard to their results.

structure,effect
COc1cc(N2CCCC(c3nccn3Cc3ccncc3)C2)ncn1 (stereo not drawn),7.068
O=C(O)C(F)(F)F.[H][C@]12CCN(c3ccccn3)[C@@]1([H])CC[C@H](COCC(=O)N1CCCC1)O2,2.024
COCC(NC(=O)c1ccc(O)nc1)c1ccc(C)o1 (stereo not drawn),-7.346
CCS(=O)(=O)CCSc1ccc(Br)cc1,-7.713
O=c1cc(CN2CCCC2)nc2n1CCCN(Cc1ccco1)C2,19.31
O=S1(=O)COCCN1Cc1cccc(Cl)c1,8.656
O=C(NCC(O)c1cccc(F)c1)C1CCN(C(=O)C2CCC2)CC1 (stereo not drawn),4.679
CCOC(=O)Cn1c(=O)nc(N)c2c(-c3ccc(OC)cc3)csc21,-18.85
COc1ccc(-c2cn[nH]c2)cc1CNC1CCCC1,-14.51
NC(=O)c1noc(Cn2ccc3ccccc3c2=O)n1,-6.008
O=C(O)C(F)(F)F.O=C(O)C(F)(F)F.c1cc(CN2Cc3nccn3CC(Cn3cncn3)C2)ccn1 (stereo not drawn),-32
CN1CCC(Cc2cnc3ccccc3c2)C1 (stereo not drawn),5.352
COc1cc(CN(C)C(=O)NCc2cccc3c2OCO3)ccc1SC,-58.72
CC(C)c1nc(CNC2CCN(S(C)(=O)=O)CC2)cs1,8.18
COCCOCCC(=O)Nc1c(-c2ccc(F)cc2)ncn1C,-1.711
CN(C(=O)c1ccncc1)c1ccccc1S(C)(=O)=O,3.373
CCC(C)c1noc(C2CCN(C(=O)Cn3nc(C)cc3C)CC2)n1 (stereo not drawn),-35.22
CN(C)Cc1nc(-n2cnc(C(=O)NCC3CC3)c2)n2ccccc12,-11.51
CC(C)OCCN1CCC(Nc2ncccn2)CC1,-1.358
Cc1nc(NS(=O)(=O)c2cccc(F)c2C)no1,18.95
Cc1nc(C2CCCN(C(=O)c3scnc3C)C2)no1 (stereo not drawn),-2.035
Cn1cc(CNc2cnn(CCO)c2)c(-c2ccncc2)n1,1.765
COc1cc2c(cc1C(=O)N1CC(c3ccncc3)C1)CCC2,-1.535
[H][C@]1([C@@]2(C)CC[C@H](O)C(C)(C)O2)CC2(CCN(c3ncccn3)CC2)CO1,22.26
O=C(CCc1nccs1)N1CCN(c2ccc(Cl)cn2)CC1,1.09
CNS(=O)(=O)CCNC(=O)c1coc(COc2ccc(F)cc2)n1,4.568
CCc1cc(CN(Cc2cccnc2)C2CN3CCC2CC3)on1 (stereo not drawn),7.692
COc1ccc2c(c1)C(NCCc1ccccn1)CCCO2 (stereo not drawn),-2.382
Cc1cccc(C)c1OCC(C)Nc1nc(N)nc2c1CCNC2 (stereo not drawn),5.324
COc1ccccc1CNc1ccc2nncn2n1,-9.784
Cc1cccc(C(=O)N2CCSCC2)c1NC(=O)c1ccsc1,-9.831
CC(C)CC(=O)Nc1cc(C(=O)N(C)C(C)C)ccc1Cl,6.145
CS(=O)(=O)CCNC(=O)N1CC2(CCCC2)c2ccccc21,2.264
CN(Cc1noc2c1CCCC2)C(=O)Nc1cccc(S(N)(=O)=O)c1,1.181
CN(C)S(=O)(=O)N1CCN(c2ccnc(N3CCCCC3)n2)CC1,4.521
O=C(c1ccc2c(c1)CCCC2)N1CCN(c2cnccn2)CC1,8.764
Cc1cc(NC(=O)CN2CCN(c3nccs3)C(C)C2)on1 (stereo not drawn),1.485
COc1cc(CNc2cc(-c3ccoc3C)nn2CCO)ccc1F,-4.053
CCOc1ccc(NC(=O)N2CCC(n3cncn3)CC2)cc1Cl,5.816
COc1ccc(N2CCCC3(C2)CN(c2nncs2)CCO3)cc1 (stereo not drawn),0.3386
O=C(OC1CCC1)c1ncccc1OCC(F)(F)F,-6.62
O=C(c1cnc(-c2ccccc2)s1)N1CCOC2(CCCC2)C1,3.059
Fc1ccc(CN2CCOC(Cn3cncn3)C2)c2ncccc12 (stereo not drawn),2.622
NC(=O)CN1CCC(NC(=O)COc2ccc(Cl)c(Cl)c2)CC1,-0.7012
COc1cc(-c2n[nH]c(CN)n2)cc(OC)c1OC,14.9
CCOc1ccc(CC(=O)N2CCCC2c2cc(C)on2)cc1 (stereo not drawn),2.155
CC1CN(Cc2ccccc2)CCCN1CCNS(C)(=O)=O (stereo not drawn),-5.367
O=C(C1CCOCC1)N1C[C@@H](F)[C@@H](OCc2nc3cc(F)ccc3[nH]2)C1,-10.39
O=C(c1cscn1)N1CCc2ncc(Cn3cncn3)n2CC1,-18.34
COc1ccc2ccccc2c1CNCC1CCS(=O)(=O)C1.Cl (stereo not drawn),-11.16
[H][C@]12CC[C@]([H])(CN(Cc3cccnc3)C1)N(C(=O)CCc1cnn(C)c1)C2,-20.32
Cc1cc(C)n(C2CN(c3ncnc4c3CCC4)C2)n1,-0.03994
CCN(CC)C(=O)[C@@H]1C[C@H](n2cc(-c3cccc(OC)c3)nn2)CN1,0.4063
CC(=O)N1CCCC2(CCN(Cc3ccc(Cl)c(C(F)(F)F)c3)C2)C1 (stereo not drawn),-11.8
CC(C)CC1SCC(=O)Nc2c1cnn2C1CCCC1 (stereo not drawn),-14.74
COC(=O)C1CCCCN1C(=O)c1ccccc1F (stereo not drawn),0.1873
CN1C(=O)CC(c2ccncc2)C12CCN(c1ncccn1)CC2.O=C(O)C(F)(F)F (stereo not drawn),-11.82
CCC(C(=O)NCCc1coc(-c2ccc(C)cc2)n1)N(C)C (stereo not drawn),2.983
CC(=O)N1CCC(Oc2ccc(C#N)cn2)CC1,-1.204
C[S+]([O-])c1nncn1CC(=O)c1ccc2c(c1)CCO2 (stereo not drawn),0.05316
Cc1nc(CN2CCCN(Cc3nc4c(F)cccc4[nH]3)CC2)no1,-10.03
CN(Cc1cc[nH]n1)C(=O)c1ccc2c(c1)nc(N1CC[C@H](O)C1)n2C,14.31
O=C(CCC(=O)N1CCCC1c1ccsc1)N1CCOCC1 (stereo not drawn),-7.231
CC(C)(C)C(NC(=O)CCS(C)(=O)=O)c1ccc(F)cc1F (stereo not drawn),-6.627
Cc1noc(C)c1CN1Cc2nccn2CC(CN2CCOCC2)C1.O=C(O)C(F)(F)F.O=C(O)C(F)(F)F (stereo not drawn),1
O=C(CCc1cccc(Cl)c1)NS(=O)(=O)Cc1ccon1,-4.005
OC[C@H]1CN(Cc2c(Cl)cncc2Cl)C[C@H]1CN1CCCC1,3.04
[H][C@@]12CS(=O)(=O)C[C@]1([H])N(Cc1ncc[nH]1)CCN2CC=C(C)C,0.7856
COc1nc2c(cc1C(=O)N(C)Cc1n[nH]c3c1CCCC3)CCC2,1.617
CC(C)NC(=O)NCC(Cc1ccc(F)cc1)C(N)=O (stereo not drawn),6.387
CCN(CCn1cccn1)Cc1nc(-c2cccs2)oc1C,-8.375
Cc1ccc(OC2(C(=O)O)CCN(C(=O)c3cccc(F)c3)CC2)cn1,2.174
COc1cccc(CN2CC(O)CN(C(=O)C3CCC3)CC2=O)c1OC (stereo not drawn),-2.316
Cc1ccc(NC(=O)NC(C)c2nc[nH]n2)s1 (stereo not drawn),-1.329
O=C(O)C(F)(F)F.OCCOCc1n[nH]c2c1CN(Cc1ccco1)C2,-11.8
Cc1ncccc1NC(=O)c1nc2c(n1C)CCN(C(=O)C1CC1)C2,-44.3
CCN1CCCC(C)(C(=O)NCc2nccn2Cc2ccccc2)C1 (stereo not drawn),7.247
N#Cc1cc(NC(=O)c2ccccn2)ccc1N1CCC(O)CC1,-4.172
Cc1ccsc1[C@@H]1CCN(C(=O)c2ccc(-c3cc[nH]n3)cc2)C[C@H]1O,-6.638
O=C(O)C(F)(F)F.O=C(O)C(F)(F)F.O=C(O)C(F)(F)F.[H][C@@]12CCCO[C@]1([H])[C@H](N(C)Cc1cccnc1)CN2CC1CC1,-3.846
CCc1cc(O)n2nc(C3CCN(C(=O)c4cccnc4)CC3)cc2n1,29.06
[H][C@@]12CN(Cc3ccoc3)CCO[C@]1([H])CN(C(=O)CC1CCCC1)C2,0.1012
CN1CCOC(CNCc2coc(-c3ccccc3Cl)n2)C1 (stereo not drawn),-5.52
CCN(Cc1ccoc1)C(C(N)=O)c1ccc(Br)cc1 (stereo not drawn),-15.16
CCN(CC)CCNC(=O)c1nn(CC)cc1Cl,-1.076
Cc1ccc(C(=O)N2CCC3(CCN3Cc3ccc(F)cc3)C2)cn1.O=C(O)C(F)(F)F (stereo not drawn),-15.1
Cc1cc(Cc2ccc(S(=O)(=O)N3CCOCC3)cc2)c(=O)[nH]n1,5.046
CCN1N=C(C(=O)N2CCCC(c3nc(C)cs3)C2)CCC1=O (stereo not drawn),6.763
Cc1nc(CCC(N)=O)cc(C2CCCN2S(C)(=O)=O)n1 (stereo not drawn),5.235

Once more, the final 8:

* [H][C@@]12CN(Cc3ccoc3)CCO[C@]1([H])CN(C(=O)CC1CCCC1)C2 | 0.1012%
* CN1CCOC(CNCc2coc(-c3ccccc3Cl)n2)C1 (stereo not drawn) | -5.52%
* CCN(Cc1ccoc1)C(C(N)=O)c1ccc(Br)cc1 (stereo not drawn) | -15.16%
* CCN(CC)CCNC(=O)c1nn(CC)cc1Cl | -1.076%
* Cc1ccc(C(=O)N2CCC3(CCN3Cc3ccc(F)cc3)C2)cn1.O=C(O)C(F)(F)F (stereo not drawn) | -15.1%
* Cc1cc(Cc2ccc(S(=O)(=O)N3CCOCC3)cc2)c(=O)[nH]n1 | 5.046%
* CCN1N=C(C(=O)N2CCCC(c3nc(C)cs3)C2)CCC1=O (stereo not drawn) | 6.763%
* Cc1nc(CCC(N)=O)cc(C2CCCN2S(C)(=O)=O)n1 (stereo not drawn) | 5.235%